Measurements: US20230280353A1, “DETECTION SYSTEM OF INTERACTION BETWEEN KNOWN MOLECULES AND PROTEINS BASED ON COVALENT CONNECTION AND IDENTIFICATION OR VERIFICATION METHOD THEREOF” (SHANGHAI JIAO TONG UNIVERSITY, priority 2021, published 2023)
No constants are given. Whether binding was seen depends on the method and setting. Some binding calls cover weakened binding; strength is not graded here. Tags and fused reporters may be left off the sequences shown.

By UniProt entry, the sequences of proteins in these tests, tags left out. Residues count along the entry.
UniProt P07363, residues 98-257: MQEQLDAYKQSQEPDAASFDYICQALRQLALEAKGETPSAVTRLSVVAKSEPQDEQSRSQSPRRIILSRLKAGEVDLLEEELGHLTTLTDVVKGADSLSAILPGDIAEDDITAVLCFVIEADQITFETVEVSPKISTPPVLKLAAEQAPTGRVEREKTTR

How the values were obtained:
[1] = target: CheAs wild type (CheAs-Flag-His) (UniProt P07363); assay: SPIDER proximity pupylation (SAm-PupE, PafA7KR, ATP), western blot with Flag antibody
[2] = target: CheAs wild type (CheAs-Flag-His) (UniProt P07363); assay: SPIDER proximity pupylation (SAm-PupE, PafA7KR, ATP) with CheAs wild type, western blot with Flag antibody; Biotin-CheZ 0, 0.1, 0.2, 0.4 (µM by the text)
[3] = target: CheAs wild type (CheAs-Flag-His) (UniProt P07363); assay: SPIDER with streptavidin-Pup tetramer made with Pup (E), Western blot
[4] = target: CheAs wild type (CheAs-Flag-His) (UniProt P07363); assay: SPIDER with SAm-PupE-1 and SAm-PupE-2, Western blot

Measured: binding

B1: biotin modified protein CheZ (CheZ with Avi tag) (protein)
chain: MMQPSIKPADEHSAGDIIARIGSLTRMLRDSLRELGLDQAIAEAAEAIPDARDRLYYVVQMTAQAAERALNSVEASQPHQDQMEKSAKALTQRWDDWFADPIDLADARELVTDTRQFLADVPAHTSFTNAQLLEIMMAQDFQDLTGQVIKRMMDVIQEIERQLLMVLLENIPEQESRPKRENQSLLNGPQVDTSKAGVVASQDQVDDLLDSLGF
binds: [1] | [2] | [3] | [4]
